Data: paper PMC1183248
Results are given in words; binding and its absence hold for the method and conditions named. Binding seen in cells or lysates may run through a third protein. Some results given as binding are weak or reduced against the parent protein; the word gives no strength.

The chains behind the UniProt entries cited, without tags or fusion partners.
UniProt O60563: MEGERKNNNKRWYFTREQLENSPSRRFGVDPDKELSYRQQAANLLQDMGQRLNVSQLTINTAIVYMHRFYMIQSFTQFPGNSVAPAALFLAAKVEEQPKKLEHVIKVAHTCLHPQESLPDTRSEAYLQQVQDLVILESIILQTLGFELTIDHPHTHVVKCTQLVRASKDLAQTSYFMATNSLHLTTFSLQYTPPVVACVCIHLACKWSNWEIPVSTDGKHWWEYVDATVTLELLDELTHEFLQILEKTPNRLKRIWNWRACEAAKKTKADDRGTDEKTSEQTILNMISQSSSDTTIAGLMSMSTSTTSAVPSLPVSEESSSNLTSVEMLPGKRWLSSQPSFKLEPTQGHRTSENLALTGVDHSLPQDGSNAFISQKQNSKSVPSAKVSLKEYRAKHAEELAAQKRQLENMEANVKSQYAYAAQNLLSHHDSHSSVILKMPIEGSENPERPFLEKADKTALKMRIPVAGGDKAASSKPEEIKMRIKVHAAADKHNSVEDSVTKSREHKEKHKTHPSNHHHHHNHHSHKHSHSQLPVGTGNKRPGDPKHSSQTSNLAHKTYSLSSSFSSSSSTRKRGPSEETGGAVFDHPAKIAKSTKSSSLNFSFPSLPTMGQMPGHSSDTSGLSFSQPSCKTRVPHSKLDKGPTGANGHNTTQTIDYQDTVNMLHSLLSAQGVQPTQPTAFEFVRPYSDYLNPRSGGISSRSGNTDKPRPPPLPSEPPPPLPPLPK
UniProt O94992: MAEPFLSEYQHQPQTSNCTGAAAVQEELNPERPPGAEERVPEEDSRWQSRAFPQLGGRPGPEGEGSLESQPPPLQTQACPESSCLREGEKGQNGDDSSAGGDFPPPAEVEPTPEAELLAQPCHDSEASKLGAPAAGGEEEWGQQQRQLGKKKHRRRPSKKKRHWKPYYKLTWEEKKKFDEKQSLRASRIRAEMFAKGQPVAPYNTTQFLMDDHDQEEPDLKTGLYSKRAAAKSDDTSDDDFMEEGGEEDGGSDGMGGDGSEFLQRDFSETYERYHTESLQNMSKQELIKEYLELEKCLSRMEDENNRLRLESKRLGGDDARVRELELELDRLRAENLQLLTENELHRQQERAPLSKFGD

Target: cyclin T1 (human (endogenous in 293)) (UniProt O60563)
Test: co-IP

binding: binds
Substance: HEXIM1 protein (endogenous) (from UniProt O94992 1-359)
